In paper PMC12016516 one finds binding data, which are given here for 7 molecules.

Chains of the proteins cited; added tags and fusions are not shown. Lines headed by an entry give the natural chain unless they say otherwise; changes in a name come on top.
UniProt Q5JIK0: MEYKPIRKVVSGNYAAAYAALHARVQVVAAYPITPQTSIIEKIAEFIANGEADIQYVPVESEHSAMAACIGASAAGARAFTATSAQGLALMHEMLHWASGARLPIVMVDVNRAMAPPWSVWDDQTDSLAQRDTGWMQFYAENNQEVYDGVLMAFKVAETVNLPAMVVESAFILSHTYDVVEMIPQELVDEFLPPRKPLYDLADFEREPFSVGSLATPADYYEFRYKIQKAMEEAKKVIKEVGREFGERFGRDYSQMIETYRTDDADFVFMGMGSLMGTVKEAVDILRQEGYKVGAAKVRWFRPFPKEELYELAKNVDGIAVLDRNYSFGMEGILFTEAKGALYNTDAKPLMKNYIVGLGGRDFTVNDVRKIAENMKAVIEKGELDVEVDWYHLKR

These are yes or no findings as the source states them, for the method shown. In cells and extracts the contact can be indirect. A yes stands for co-enrichment or nearness to the bait. Other partners may have been found. For part of these data: No binding means not detected with the bait.

Assay in all cases: affinity purification with mass spectrometry; HA- and His6-tagged bait made from its native locus, captured from clarified T. kodakarensis lysate on a Ni2+-charged chelating column (buffer A: 10 mM Tris HCl pH 8.0, 500 mM NaCl, 10% glycerol), eluted with an imidazole gradient; pooled fractions identified by MuDPIT LC-MS/MS and compared with the parental strain TS559 (P < 0.05, log2 fold change ≥ 2); cells grown at 85°C with (+S˚) or without (–S˚) elemental sulfur

For assay [1], the target named is T1, Formate dehydrogenase, [4Fe-4S] cluster-binding protein, FDHγ3 (Thermococcus kodakarensis) (UniProt Q5JHV9).
T1 sequence: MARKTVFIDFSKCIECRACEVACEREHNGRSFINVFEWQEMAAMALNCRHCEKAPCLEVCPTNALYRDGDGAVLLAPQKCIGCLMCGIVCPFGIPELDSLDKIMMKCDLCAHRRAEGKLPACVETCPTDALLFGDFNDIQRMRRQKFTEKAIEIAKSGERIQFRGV

The target of assay [2] is T2, [4Fe-4S] cluster-binding protein associated with FDH, FDHγ2 (Thermococcus kodakarensis) (UniProt Q5JHW1).
T2 sequence: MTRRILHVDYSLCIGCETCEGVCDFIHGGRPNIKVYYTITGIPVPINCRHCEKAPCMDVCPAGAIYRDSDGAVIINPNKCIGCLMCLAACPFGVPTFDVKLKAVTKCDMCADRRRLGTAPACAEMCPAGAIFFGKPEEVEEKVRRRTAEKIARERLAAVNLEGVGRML

Assay [3] addresses T3, Indolepyruvate-Fd oxidoreductase, β subunit (Thermococcus kodakarensis) (UniProt O07836).
T3 sequence: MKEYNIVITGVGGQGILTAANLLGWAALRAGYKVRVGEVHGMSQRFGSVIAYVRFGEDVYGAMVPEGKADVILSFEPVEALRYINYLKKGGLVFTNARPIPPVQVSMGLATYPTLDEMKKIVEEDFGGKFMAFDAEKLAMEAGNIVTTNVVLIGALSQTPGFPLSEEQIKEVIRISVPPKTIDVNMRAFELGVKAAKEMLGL

The target of assay [4] is T4, Indolepyruvate-Fd oxidoreductase, α subunit (Thermococcus kodakarensis) (UniProt O07835).
T4 sequence: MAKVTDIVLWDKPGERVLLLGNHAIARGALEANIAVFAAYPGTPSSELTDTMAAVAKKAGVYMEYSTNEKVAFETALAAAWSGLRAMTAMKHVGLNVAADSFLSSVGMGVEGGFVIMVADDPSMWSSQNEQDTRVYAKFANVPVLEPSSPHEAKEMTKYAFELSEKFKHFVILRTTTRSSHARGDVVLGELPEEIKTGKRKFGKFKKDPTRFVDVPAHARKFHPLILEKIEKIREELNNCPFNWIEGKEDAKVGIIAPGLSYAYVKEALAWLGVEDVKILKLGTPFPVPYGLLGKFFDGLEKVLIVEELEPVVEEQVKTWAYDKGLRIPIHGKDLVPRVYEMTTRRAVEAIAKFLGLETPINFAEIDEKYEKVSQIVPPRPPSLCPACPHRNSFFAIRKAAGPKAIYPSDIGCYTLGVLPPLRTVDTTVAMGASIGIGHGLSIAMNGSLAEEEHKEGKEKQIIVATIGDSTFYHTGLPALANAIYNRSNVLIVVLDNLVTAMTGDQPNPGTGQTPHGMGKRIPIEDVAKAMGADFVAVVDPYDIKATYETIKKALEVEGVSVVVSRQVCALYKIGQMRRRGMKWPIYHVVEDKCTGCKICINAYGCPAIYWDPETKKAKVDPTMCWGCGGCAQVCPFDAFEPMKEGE

Assay [5] deals with 2-Oxoisovalerate-ferredoxin oxidoreductase, α subunit (Thermococcus kodakarensis) (UniProt Q5JIK0).
Assay [6] addresses T5, 2-Oxoisovalerate-ferredoxin oxidoreductase, β subunit (Thermococcus kodakarensis) (UniProt Q5JIJ9).
T5 sequence: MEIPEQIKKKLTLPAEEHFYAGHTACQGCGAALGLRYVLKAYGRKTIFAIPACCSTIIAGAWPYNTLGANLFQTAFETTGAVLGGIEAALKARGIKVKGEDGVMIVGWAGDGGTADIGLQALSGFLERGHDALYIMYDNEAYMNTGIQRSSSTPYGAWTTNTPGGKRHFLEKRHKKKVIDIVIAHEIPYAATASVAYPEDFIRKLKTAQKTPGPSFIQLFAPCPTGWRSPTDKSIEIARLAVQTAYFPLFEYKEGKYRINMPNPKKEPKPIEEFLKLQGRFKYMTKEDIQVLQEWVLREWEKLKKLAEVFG

Assay [7] has as its target T6, 2-Oxoisovalerate-ferredoxin oxidoreductase, γ subunit (Thermococcus kodakarensis) (UniProt Q5JIK2).
T6 sequence: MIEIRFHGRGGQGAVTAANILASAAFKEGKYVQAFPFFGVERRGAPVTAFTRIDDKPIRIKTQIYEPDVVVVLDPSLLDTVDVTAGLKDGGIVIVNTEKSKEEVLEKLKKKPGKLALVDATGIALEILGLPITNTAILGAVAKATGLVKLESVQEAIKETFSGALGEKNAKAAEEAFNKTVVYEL

B1: glutamate synthase (TK2074) (protein, UniProt Q5JHW2 1-351)
chain: MEGIRFAFLCREKPEPTGKKVAVIGAGPAGLAATGYLVCQGHEVHVYDKLPEPGGLMLFGIPEFRIPIYRVREGYKELEKVYNVKFFTRTKVCFGNPKESGDEFVERRIEFEEILKNYDAVLIATGTWNAYVPTIPGSDLEGVYPALEYLFRIKSAKLGHMDWSEVPPVEGRKVLVVGAGHSAVDAALESINLGAEKVYMSYRRTIREAPAGAYEINLLQQRGVKWLERTMPVRIIGENGRVRAVELVKTELSEPDETGRRRPIPIEGSNFQIEVDYMVCAVGQMPTPPFSKEMGIALDRKGRIVVDSRHMTSREGVFAAGDVVLGPSKVGRAVKDGLYAAESIHLWLMGR
As for B1, the binding result in assay [1] and in assay [2] was “binds” throughout.

B2: Indolepyruvate-Fd oxidoreductase, α subunit (protein, UniProt O07835 1-647)
chain: T4 sequence
Turning to B2, the binding result in assay [3] is “binds”.

B3: IORβ2 (TK2244) (protein, UniProt Q5JHR4 1-194)
chain: MEFNLIITGVGGQGGLTLSRIVGNAAMVEGYNVRIGETLGMSQRYGSVLSYLRFGEEVYSPLIEEGEADLMLALEPAEALRNARFLSRKSHAIINAYPIHTATTLVGKERYPELNEIKEAIGRICPVDMLDFQKEADKINPRTLGVLMLGYAYGKGLIPLRKESILEGIKLTLREKLWEMNFRAFERGVELSKE
In the case of B3, the binding entry in assay [4] and in assay [3] was “binds” throughout.

B4: 2-Oxoisovalerate-ferredoxin oxidoreductase, δ subunit (protein, UniProt Q5JIK1 1-105)
chain: MNTLFGEKKAEAKKIVLTSVDQYPEAPISLGTTLSNFTGDWRTFIPVVNEDKCVKCYICWKFCPEPAIYIKPDGYVAIDYDYCKGCGICANECPTKAITMEKEEK
Turning to B4, the binding result in assay [5], in assay [6] and in assay [7] was “binds” each time.

B5: [4Fe-4S] cluster-binding protein associated with FDH, FDHγ2 (protein, UniProt Q5JHW1 1-168)
chain: T2 sequence
Regarding B5, in assay [1], the binding result is listed as “binds”.

B6: [4Fe-4S] cluster-binding protein associated with FDH, FDHγ4 (protein, UniProt Q5JHV8 1-162)
chain: MPETLKCSLIPLEHLPNGLGVPQIDPELCIGCGACVNVCPAGALQAIDDYMEGIRKISLNIGKCTPCTRCEEVCPTGAIKIATFEVISLRKRAYVEVVELRLHLCPGCGNYADYTERSLEKSLQMLSEGMFDRDEIVGRAVLCRSCRRKLTVNETMRASREG
On to B6, for which the binding result in assay [1] is listed as “binds”.

B7: IORα2 (TK1643) (protein, UniProt Q5JIU3 1-637)
chain: MEALKNAPSNASLGVSAKKERKLLMGNEAIAYGALESGVVFATGYPGTPSTEVIETIARLKPEVFAEWAPNEKVALEEAAGVAYTGLRALVTMKCVGLNVAADPLMSLAYSGVEGGLVILVADDPGPHTSQTEQDDRYYGKISLLPVLEPADPQEAHDLIKYAYELSERYKVPIIFRTTTRVNHTTADVEVGEFVELNRKPVFKKDIERYVRASMEGNRKRHKWLNETLRKIEEEFNEMPFNWVEGKEDAKLGIIVEGAPYNYVKEVLPKINAEFKVLKLSTPHPLPKKLVVEFLKTVEEAIVIEDGAPFLEEEVKIAAYEAGLNVPIYGKRTGHLPLEGELTPSLVRNALLKVIGEESEEYVKPEEVAYAENLAPKRPPVMCPGCPHRGSYRAVLDALRDLKLGRYKVPIHGDIGCYALSLLPPLEAIWTEYVMGASISLANGQSVVMDKKIIATIGDSTFFHNGIQPLIDAVYKNLNVLVMILDNRTTAMTGHQPHPGTGGSETGRKFNEIDIEALVKALGVKYVKTVDPYDLKATREAIKEAMQIEGPAVIIAKRECVIPVIRRGEIGELPVVIEDKCTGCKACILLTGCPALVYDPETKKVRIDELLCTGCGVCNQTCPFDAIKFPSELKKGA
As for B7, the binding entry in assay [4] and in assay [3] was “no binding” each time.
